Experimental data published in patent publication US20230226259A1, “NANOFIBER CARDIAC PATCH AND METHODS OF USE THEREOF” (Ohio State Innovation Foundation, priority 2020, published 2023).
Where a name gives a salt, the structure may show the parent alone.

Tested on: hiPSC-CMs
Assay: Multi-electrode array (MEA) field potentials of hiPSC-CMs cultured in 2-D or on aligned coaxial patches (3-D) after cardiac drugs
[1] = 3-D cultures, only after 100 nM

## Cc1cccc(CCN2CCC(C(=O)c3ccc(NS(C)(=O)=O)cc3)CC2)n1 [E-4031, E4031 hydrochloride]
2-D cultures, 50 nM
  samples showing beat period irregularity (CiPA): 16.67%
2-D cultures, 50 nM and 100 nM
  FPDc, change vs baseline: significant increase
  beat period, change vs baseline: significant increase
2-D cultures, 100 nM
  samples showing beat period irregularity (CiPA): 33%
[1]
  FPDc, change vs baseline: significant increase
  beat period, change vs baseline: significant increase
3-D patches, dose not stated
  patches showing beat period irregularity (CiPA): 60%
Both 2-D and 3-D cultures, 100 nM
  spike amplitude, change: significant decrease
Both 2-D and 3-D cultures, change after treatment
  beating frequency (beats per minute): decrease
